Experimental data from patent publication US8895504B2, “Amylin derivatives” (priority 2008, dated 2014).
For at least one compound, name, drawing or mass did not settle the structure. Some compounds share one wording; it may come from a single statement. *1 amine or outer side, *2 acyl side, *3 side chain or, on linkers, in order; H or OH if unused. Where a SMILES comes first, the peptide text is derived from it. Bridges are numbered along the chain shown (N, C = ends). The star is where a group is joined. C20 diacid = O=C(O)CCCCCCCCCCCCCCCCCCC(=O)*; γGlu = O=C(O)[C@H](CCC(=O)[*:2])N[*:1]; Trx = NC[C@H]1CC[C@H](C(=O)O)CC1

Test system: food intake
Test: Pharmacological Assay (I) - efficacy testing on appetite, ad libitum fed rat model
Type: in vivo, Sprague Dawley (SD) rats
Conditions: 30 nmol/kg vs vehicle, ad libitum fed rats, n=5-7, 0-48 hours
Source text: Assays Pharmacological Assay (I)—Experimental Protocol for Efficacy Testing on Appetite with an Amylin Derivative, Using an Ad Libitum Fed Rat Model. Sprague Dawley (SD) rats from Taconic Europe, Denmark are used for the experiments. The rats have a body weight 200-250 g at the start of experiment. The rats arrive at least 10-14 days before start of experiment to allow acclimatization to experimental settings. During this period the animals are handled at least 2 times. After arrival rats are housed individually for one week in a reversed light/dark phase (meaning that lights are off during daytime and on during nighttime) for two weeks. Since rats are normally active and eat their major part of their daily food intake during the dark period, rats are dosed in the morning right before lights are turned off. This set-up results in the lowest data variation and highest test sensitivity. The experiment is conducted in the rats' home cages and rats have free access to food and water throughout the acclimatization period and the experiment period. Each dose of derivative is tested in a group of 5-8 rats. […] The time of dosing is recorded for each group. […] The food consumption is recorded individually continuously by on-line registration or manually every hour for 7 hours, and then after 24 h and sometimes 48 h. […] The individual data are recorded in Microsoft excel sheets. […]

## CC[C@H](C)[C@H](NC(=O)[C@@H]1CCCN1C(=O)CNC(=O)[C@H](Cc1ccccc1)NC(=O)[C@H](CC(N)=O)NC(=O)[C@H](CC(N)=O)NC(=O)[C@H](CO)NC(=O)[C@H](CO)NC(=O)[C@H](Cc1c[nH]cn1)NC(=O)[C@H](Cc1c[nH]cn1)NC(=O)[C@H](CC(C)C)NC(=O)[C@H](Cc1ccccc1)NC(=O)[C@H](CC(N)=O)NC(=O)[C@H](C)NC(=O)[C@H](CC(C)C)NC(=O)[C@H](CCCNC(=N)N)NC(=O)[C@H](CCC(N)=O)NC(=O)[C@@H](NC(=O)[C@H](C)NC(=O)[C@@H]1CSSC[C@H](NC(=O)[C@H](Cc2c[nH]cn2)NC(=O)CC[C@H](NC(=O)[C@H]2CC[C@H](CNC(=O)CCCCCCCCCCCCCCCCCCC(=O)O)CC2)C(=O)O)C(=O)N[C@@H](CC(N)=O)C(=O)N[C@@H]([C@@H](C)O)C(=O)N[C@@H](C)C(=O)N[C@@H]([C@@H](C)O)C(=O)N1)[C@@H](C)O)C(=O)N[C@@H](CC(C)C)C(=O)N1CCC[C@H]1C(=O)N1CCC[C@H]1C(=O)N[C@H](C(=O)N[C@@H](CC(N)=O)C(=O)N[C@H](C(=O)NCC(=O)N[C@@H](CO)C(=O)N[C@@H](CC(N)=O)C(=O)N[C@H](C(=O)N[C@@H](Cc1ccc(O)cc1)C(N)=O)[C@@H](C)O)C(C)C)[C@@H](C)O [Example 33, N-alpha-[4-Carboxy-4-({4-[(19-carboxynonadecanoylamino)methyl]transcyclohexanecarbonyl}amino)butyryl]-[His1,His17]-pramlintide] ({C20 diacid-Trx-γGlu}-HCNTATCATQRLANFLHHSSNNFGPILPPTNVGSNTY-NH2; disulfide 2-7; C-terminus assumed)
  food intake over a period of 48 hours: effectively reducing food intake
